Assay results from patent publication EP1333824B1, “TREATMENT OF SEXUAL DYSFUNCTION WITH BOMBESIN RECEPTOR ANTAGONISTS” (Warner-Lambert Company LLC, priority 2000, dated 2002).

Test: Plasma sexual hormone levels by radioimmunoassay
Assay type: in vivo, rat
Conditions: Compound (1) 3-10mg/kg 1h before blood collection; vs vehicle

COc1ccc(C2(CNC(=O)[C@](C)(Cc3c[nH]c4ccccc34)NC(=O)Nc3ccc([N+](=O)[O-])cc3)CCCCC2)nc1 [Compound (1), (S) 3-(1H-Indol-3-yl)-N-[1-(5-methoxy-pyridin-2-yl)-cyclohexyl-methyl]-2-methyl-2-[3-(4-nitro-phenyl)-ureido]-propionamide]
no effect: FSH plasma levels | oestradiol plasma levels | prolactin plasma levels
